Test results published in PMC5428262.

Assays:
[1] = target: GFP-tagged tomosyn1 (GFP-Tomosyn1), wild type (rat); assay: co-IP; GFP antiserum and protein G agarose, overnight, 300 ug extract of INS 832/13 cells expressing GFP-tomosyn1 constructs; lysis buffer with 1% Triton X-100, 150 mM NaCl, 25 mM N-ethylmaleimide; blot; cells in regular media or treated with 10 mM glucose or 30 mM KCl (15 min) in KRB
[2] = target: native tomosyn (human islets) (human (endogenous in human islets)); assay: co-IP; anti-tomosyn antibody (0.25 ug) and protein G agarose, overnight, 300 ug whole cell extract of INS 832/13 cells or human islets; lysis buffer with 1% Triton X-100, 150 mM NaCl, 25 mM N-ethylmaleimide; blot

binding [1]: binds
B1: secretagogin (INS 832/13 cells) (protein, UniProt Q6R556 1-276)
chain: MDNAHRQTQAHLDAACFWQIWQRFDKDEKGYIKETELDAFFDDLLAKFGIEDTLMEENVQKMKEQLMVGHDISKEGRILMKELASMFLSEDENFLLFFRLETPLDNSVEFMQIWRKYDADSSGFISAAELSNFLRDLFLHHKKVISEAELEEYTSTMEKIFDRNKDGRLDLNDLARILALQENFLLQFKMDASSTEERKRDFEKIFAHYDVSKTGALEGPEVDGFVKDMMELVQPSISGVDLDKFREILLRHCDVNKDGKIQKSELALCLGLKINP

binding [2]: binds
B2: native secretagogin (human islets) (protein, UniProt O76038 1-276)
chain: MDSSREPTLGRLDAAGFWQVWQRFDADEKGYIEEKELDAFFLHMLMKLGTDDTVMKANLHKVKQQFMTTQDASKDGRIRMKELAGMFLSEDENFLLLFRRENPLDSSVEFMQIWRKYDADSSGFISAAELRNFLRDLFLHHKKAISEAKLEEYTGTMMKIFDRNKDGRLDLNDLARILALQENFLLQFKMDACSTEERKRDFEKIFAYYDVSKTGALEGPEVDGFVKDMMELVQPSISGVDLDKFREILLRHCDVNKDGKIQKSELALCLGLKINP

Results are given in words; binding and its absence hold for the method and conditions named. Binding seen in cells or lysates may run through a third protein. Binding calls can cover weak binding; strength is not graded here. Tags and fused reporters may be left off the sequences shown. One block for each binder: values may come before it.
